The results in this text go back to US20200306301A1.

Sequences of proteins named here, by UniProt entry; tags and fusion partners are left off. Residues count along the entry.
UniProt P08575, residues 26-1306: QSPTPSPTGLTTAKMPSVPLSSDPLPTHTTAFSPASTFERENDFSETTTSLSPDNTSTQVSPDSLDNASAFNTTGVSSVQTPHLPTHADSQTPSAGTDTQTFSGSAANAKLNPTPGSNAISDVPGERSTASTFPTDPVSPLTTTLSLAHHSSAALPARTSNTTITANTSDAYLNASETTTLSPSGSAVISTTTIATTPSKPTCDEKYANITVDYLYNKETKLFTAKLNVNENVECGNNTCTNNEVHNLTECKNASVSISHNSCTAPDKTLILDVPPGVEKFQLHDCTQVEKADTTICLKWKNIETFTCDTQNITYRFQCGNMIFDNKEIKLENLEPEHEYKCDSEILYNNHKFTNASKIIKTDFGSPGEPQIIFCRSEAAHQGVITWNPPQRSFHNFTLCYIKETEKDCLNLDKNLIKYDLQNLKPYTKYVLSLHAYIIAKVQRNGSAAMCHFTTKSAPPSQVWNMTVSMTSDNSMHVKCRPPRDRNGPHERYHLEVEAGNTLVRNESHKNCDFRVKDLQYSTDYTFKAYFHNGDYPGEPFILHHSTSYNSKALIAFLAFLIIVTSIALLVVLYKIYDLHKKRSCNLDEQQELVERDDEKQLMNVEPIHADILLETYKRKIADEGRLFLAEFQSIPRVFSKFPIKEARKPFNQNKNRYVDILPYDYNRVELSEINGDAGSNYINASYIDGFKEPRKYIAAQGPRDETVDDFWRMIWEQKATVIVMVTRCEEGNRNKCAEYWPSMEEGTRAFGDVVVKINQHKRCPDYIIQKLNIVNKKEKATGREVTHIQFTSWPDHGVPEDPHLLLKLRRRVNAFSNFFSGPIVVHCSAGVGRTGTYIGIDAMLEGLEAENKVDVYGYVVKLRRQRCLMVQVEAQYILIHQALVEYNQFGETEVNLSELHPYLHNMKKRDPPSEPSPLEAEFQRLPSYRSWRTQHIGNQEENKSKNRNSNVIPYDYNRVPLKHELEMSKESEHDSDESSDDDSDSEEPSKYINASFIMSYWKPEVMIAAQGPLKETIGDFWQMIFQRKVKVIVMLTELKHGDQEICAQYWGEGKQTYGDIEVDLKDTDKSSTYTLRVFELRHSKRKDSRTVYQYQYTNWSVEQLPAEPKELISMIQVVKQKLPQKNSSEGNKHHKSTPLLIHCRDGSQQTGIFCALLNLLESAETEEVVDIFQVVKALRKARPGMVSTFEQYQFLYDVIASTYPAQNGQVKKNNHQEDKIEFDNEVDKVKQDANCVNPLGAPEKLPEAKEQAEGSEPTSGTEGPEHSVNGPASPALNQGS

No constants are given. Whether binding was seen depends on the method and setting. Some results given as binding are weak or reduced against the parent protein; the word gives no strength. For some assays here: Sequences can lack the tags named with a protein.

In assay [1] the target is CD45 (human) expressed on the surface of activated primary human T cells (human) (UniProt P08575). Put plainly: flow cytometry on T cells, detection through the hexahistidine tag. On the technique in general: Flow cytometry measures light scatter and fluorescence of single cells or particles in a stream.
Assay [2] has the same target. Put plainly: flow cytometry titration on activated human CD8 T cells.

B1: BC8scFv (monomeric, hexahistidine tag) (scFv, V domains shown, not shown: small tags and cut ends)
VH: QVQLVESGGGLVQPGGSLKLSCAASGFDFSRYWMSWVRQAPGKGLEWIGEINPTSSTINFTPSLKDKVFISRDNAKNTLYLQMSKVRSEDTALYYCARGNYYRYGDAMDYWGQGTSVTVSS
VL: DIVLTQSPASLAVSLGQRATISCRASKSVSTSGYSYLHWYQQKPGQPPKLLIYLASNLESGVPARFSGSGSGTDFTLNIHPVEEEDAATYYCQHSRELPFTFGSGTKLEIK
As to B1, the binding entry in assay [1] is listed as “binds”.

B2: hBC8(23) humanized BC8 IgG anti-CD45 antibody (antibody, V domains shown)
VH: EVQLVESGGGLVQPGGSLRLSCAASGFDFSRYWMSWVRQAPGKGLEWIGEINPTSSTINFADSVKGRFTISRDNAKNSLYLQMNSVRDEDTAVYYCARGNYYRYGDAMDYWGQGTLVTVSS
VL: EIVLTQSPATLSLSLGERATISCRASKSVSTSGYSYLHWYQQKPGQAPKLLIYLASNRATGVPARFSGSGPGTDFTLTISSLEPEDFATYYCQHSRELPFTFGQGTKLEIK
For the molecule B2, the binding result in assay [2] is “binds”.
